Experimental data: article PMC12390941, “Ubiquitin-specific protease 7-mediated stabilization of discoidin domain receptor 1 drives progression of TP53-Mutant cancers” (The Journal of Biological Chemistry, 2025)
No constants are given. Whether binding was seen depends on the method and setting. In cells and extracts the contact can be indirect. Some results given as binding are weak or reduced against the parent protein; the word gives no strength.

By UniProt entry, the sequences of proteins in these tests, tags left out. Residues count along the entry.
UniProt Q08345, residues 19-913: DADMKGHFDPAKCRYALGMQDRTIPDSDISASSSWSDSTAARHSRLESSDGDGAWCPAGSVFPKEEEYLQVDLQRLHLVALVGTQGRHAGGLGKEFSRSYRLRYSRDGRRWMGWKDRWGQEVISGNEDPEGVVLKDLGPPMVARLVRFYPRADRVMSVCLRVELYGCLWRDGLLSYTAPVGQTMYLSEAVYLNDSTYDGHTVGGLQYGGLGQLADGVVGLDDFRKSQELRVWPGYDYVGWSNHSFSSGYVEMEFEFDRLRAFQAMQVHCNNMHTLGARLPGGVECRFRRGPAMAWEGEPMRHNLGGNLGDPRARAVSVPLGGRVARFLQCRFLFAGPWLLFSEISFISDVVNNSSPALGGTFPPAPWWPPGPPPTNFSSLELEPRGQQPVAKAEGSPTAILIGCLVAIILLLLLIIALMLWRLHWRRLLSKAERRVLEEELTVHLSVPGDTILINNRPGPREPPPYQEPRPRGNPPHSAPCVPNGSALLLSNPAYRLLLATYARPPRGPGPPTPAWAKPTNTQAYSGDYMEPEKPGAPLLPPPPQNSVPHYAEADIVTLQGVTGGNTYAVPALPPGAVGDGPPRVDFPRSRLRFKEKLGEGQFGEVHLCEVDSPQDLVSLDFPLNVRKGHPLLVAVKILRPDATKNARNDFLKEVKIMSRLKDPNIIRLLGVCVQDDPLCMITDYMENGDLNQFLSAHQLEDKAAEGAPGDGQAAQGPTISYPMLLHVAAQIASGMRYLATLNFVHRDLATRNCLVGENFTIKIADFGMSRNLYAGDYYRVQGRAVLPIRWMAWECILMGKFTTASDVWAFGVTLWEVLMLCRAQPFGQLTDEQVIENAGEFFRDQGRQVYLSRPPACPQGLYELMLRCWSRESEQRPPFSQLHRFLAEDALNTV
UniProt Q93009: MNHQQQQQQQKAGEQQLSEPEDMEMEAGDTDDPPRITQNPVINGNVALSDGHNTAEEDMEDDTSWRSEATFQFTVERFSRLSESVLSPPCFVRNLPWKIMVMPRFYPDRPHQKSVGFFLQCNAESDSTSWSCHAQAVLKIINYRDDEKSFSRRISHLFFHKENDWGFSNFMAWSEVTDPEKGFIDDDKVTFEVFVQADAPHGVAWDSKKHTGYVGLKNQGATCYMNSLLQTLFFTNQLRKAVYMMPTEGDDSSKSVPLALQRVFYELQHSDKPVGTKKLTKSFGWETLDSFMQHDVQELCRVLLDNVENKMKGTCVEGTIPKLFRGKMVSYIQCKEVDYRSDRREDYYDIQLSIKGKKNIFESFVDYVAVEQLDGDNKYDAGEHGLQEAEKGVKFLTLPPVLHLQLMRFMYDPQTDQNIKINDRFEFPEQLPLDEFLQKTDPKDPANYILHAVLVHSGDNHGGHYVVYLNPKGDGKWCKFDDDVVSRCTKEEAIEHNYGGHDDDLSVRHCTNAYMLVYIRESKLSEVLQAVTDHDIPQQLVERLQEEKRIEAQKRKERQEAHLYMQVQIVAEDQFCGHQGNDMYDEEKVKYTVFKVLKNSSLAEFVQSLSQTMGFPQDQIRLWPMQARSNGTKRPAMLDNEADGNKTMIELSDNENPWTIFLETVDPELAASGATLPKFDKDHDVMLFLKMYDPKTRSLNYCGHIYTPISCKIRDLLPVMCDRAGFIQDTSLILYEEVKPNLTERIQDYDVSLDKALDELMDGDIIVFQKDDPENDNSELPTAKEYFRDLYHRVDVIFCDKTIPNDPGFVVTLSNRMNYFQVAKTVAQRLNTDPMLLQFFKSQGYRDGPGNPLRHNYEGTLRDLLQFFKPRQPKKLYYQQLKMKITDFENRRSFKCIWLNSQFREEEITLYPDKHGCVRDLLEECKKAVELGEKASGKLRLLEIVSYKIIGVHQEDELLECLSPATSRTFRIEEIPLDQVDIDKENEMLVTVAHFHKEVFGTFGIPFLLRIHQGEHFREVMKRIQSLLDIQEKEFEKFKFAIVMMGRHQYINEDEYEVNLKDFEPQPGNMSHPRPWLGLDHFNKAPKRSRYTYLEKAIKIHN

What was measured:
[1] = target: Discoidin Domain Receptor 1 (endogenous, A549 cells) (human (endogenous in A549)) (UniProt Q08345); experiment: co-IP; reciprocal co-IP of endogenous proteins in A549 cells with DDR1 or USP7 antibodies, IgG as negative control, immunoblot; at least 1 mg protein and at least 1 ug antibody per sample
DDR1-Flag = DDR1-Flag (UniProt Q08345); experiment: co-IP; HEK293T cells overexpressing DDR1-Flag and Myc-USP7; IP with Myc magnetic beads or DDR1 antibody, immunoblot; also done in SCR and TP53-knockdown HEK293T cells (Myc pulldown); at least 1 mg protein and at least 1 ug antibody per sample

| Substance | binding [1] | binding (DDR1-Flag) |
| --- | --- | --- |
| Ubiquitin-specific protease 7 (endogenous, A549 cells) (from UniProt Q93009 1-1102) (enzyme) | binds | – |
| Myc-USP7 (from UniProt Q93009 1-1102) (enzyme) | – | binds |
